{"sequences": {"note": "The chains behind the UniProt entries cited, without tags or fusion partners. Residues count along the entry.", "UniProt O94953, residues 917-1031": "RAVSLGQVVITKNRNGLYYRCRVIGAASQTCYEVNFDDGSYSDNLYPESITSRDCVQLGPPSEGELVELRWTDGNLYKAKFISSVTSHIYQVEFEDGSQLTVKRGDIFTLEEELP", "UniProt Q9H3R0, residues 877-991": "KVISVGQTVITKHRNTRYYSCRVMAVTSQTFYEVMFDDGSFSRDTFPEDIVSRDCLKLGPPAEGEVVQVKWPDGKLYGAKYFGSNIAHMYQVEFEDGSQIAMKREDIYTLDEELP"}, "source": "paper PMC5114558", "about": "“Reader domain specificity and lysine demethylase-4 family function” (Nature Communications, 2016)", "key": {"[1]": {"target": "KDM4B double tudor domain (KDM4B-DTD), His6 tag cleaved, for crystallization (human) (UniProt O94953)", "experiment": "SEC; size exclusion chromatography, Stokes radius (Supplementary Table 2); both purified"}, "[2]": {"target": "KDM4C double tudor domain (KDM4C-DTD), as used for size exclusion chromatography (human) (UniProt Q9H3R0)", "experiment": "SEC; size exclusion chromatography, Stokes radius (Supplementary Table 2); both purified"}}, "note": "No constants are given. Whether binding was seen depends on the method and setting."}
{"substance": "KDM4B double tudor domain (KDM4B-DTD), His6 tag cleaved, for crystallization (from UniProt O94953 917-1031) (domain or fragment)", "values": [{"measurement": "binding", "setting": "[1]", "value": "no binding"}]}
{"substance": "KDM4C double tudor domain (KDM4C-DTD), as used for size exclusion chromatography (from UniProt Q9H3R0 877-991) (domain or fragment)", "values": [{"measurement": "binding", "setting": "[2]", "value": "no binding"}]}
